Source: patent US11926678B2 (Immunwork Inc., priority 2020, dated 2024)

Test: peptide made by a vendor (Fmoc solid-phase peptide synthesis)
Conditions: whole synthesis

maleimido-ethyl-GGSGGSKGSKGSKGSKGSK
purity (crude or final not stated): 95.67%
